The source of these data is the supplement of paper PMC11732987, “Enantioselective OTUD7B fragment discovery through chemoproteomics screening and high-throughput optimisation” (Communications Chemistry, 2025).

The other results are listed elsewhere or left out. The data scatter; read single values as rough.

Compound in one experiment: ClCC(=O)N[C@@H]1CCCc2ccccc12
Description: log2 mean competition ratio of IA-DTB cysteine labelling (DMSO/compound) (log2 ratio); higher = stronger cysteine engagement by compound. To be noted: 50 µM; treatment time: 4 h; cell line lysate: HEK293T. The method, then: (§1)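 IA-DTB competitive cysteine chemoproteomics in HEK293T RIPA lysate. Lysates were treated with compound 29 or 30 at 50 or 200 µM for 4 h, then IA-DTB (500 µM, 1 h), trypsin-digested, NeutrAvidin-enriched and analysed by diaPASEF. Competition ratio = intensity DMSO / intensity compound (n=4 treated, n=64 DMSO); binding: mean log2 CR ≥ 1 and p ≤ 0.05 plus QC filters. Target is the cysteine site.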
For the target NDUFV1 C125, the “log2 mean competition ratio” value is -0.0322.
In the case of NCAPH C309 (UniProt Q15003), the “log2 mean competition ratio” value is -0.0116.
Turning to NFXL1 C748 (UniProt Q6ZNB6), the “log2 mean competition ratio” value was -0.139.
The same measure, in the same setting: then NBAS C1634 (UniProt A2RRP1), with -0.316; and NCAPD3 C631 (UniProt P42695), with 0.0261.
Take NFRKB C29 (UniProt Q6P4R8): the “log2 mean competition ratio” value is -0.158.
NCAPD3 C361 (UniProt P42695): the “log2 mean competition ratio” value stood at 0.144.
On to NEDD1 C314 (UniProt Q8NHV4), for which the “log2 mean competition ratio” value came out at 0.306.
For the target NCOA7 C487 (UniProt Q8NI08), the “log2 mean competition ratio” value amounted to 0.00997.
Consider NOL8 C259 (UniProt Q76FK4), for which the “log2 mean competition ratio” value is -0.14.
Take NEMP1 C434 (UniProt O14524): the “log2 mean competition ratio” value amounted to 0.146.
As to NCOA3 C197 (UniProt Q9Y6Q9), the “log2 mean competition ratio” value turned out to be 0.51.
As to NEDD1 C66 (UniProt Q8NHV4), the “log2 mean competition ratio” value was found to be 0.575.
Take NKD2 C229: the “log2 mean competition ratio” value worked out at 0.0495.
Take NEK7 C253 (UniProt Q8TDX7): the “log2 mean competition ratio” value amounted to 0.0786.
Consider NCKIPSD C376 (UniProt Q9NZQ3), for which the “log2 mean competition ratio” value is -0.106.
Turning to NCAPG C966 (UniProt Q9BPX3), the “log2 mean competition ratio” value is -0.224.
For NCAPG2 C443 (UniProt Q86XI2), the “log2 mean competition ratio” value was 0.352.
In the case of NIBAN2 C405 (UniProt Q96TA1), the “log2 mean competition ratio” value was 0.0434.
Consider NCAPH2 C230 (UniProt Q6IBW4), for which the “log2 mean competition ratio” value was -0.129.
As for NCAPH C114 (UniProt Q15003), the “log2 mean competition ratio” value was 0.338.
For NHSL1 C1554 (UniProt Q5SYE7), the “log2 mean competition ratio” value turned out to be 0.182.
NDUFB11 C141 (UniProt Q9NX14): the “log2 mean competition ratio” value is -0.136.
Still for that read-out and setting: the value for NCAPD2 C1249 (UniProt Q15021) was 0.28; that for NDOR1 C507 (UniProt Q9UHB4) was 0.0617; that for NDUFAF7 C148 (UniProt Q7L592) was -0.407.
Turning to NLN C153 (UniProt Q9BYT8), the “log2 mean competition ratio” value is -0.0403.
Still for that read-out and setting: then NIT1 C203 (UniProt Q86X76), with 0.374; and NIN C297 (UniProt Q8N4C6), with -0.217; and NFAT5 C566 (UniProt O94916), with 0.0249.
Take NME3 C158: the “log2 mean competition ratio” value was -0.0181.
On to NEU1 C299 (UniProt Q99519), for which the “log2 mean competition ratio” value was found to be 0.0554.
Consider NCAPD3 C1389 (UniProt P42695), for which the “log2 mean competition ratio” value is 0.286.
As to NCOR2 C866, the “log2 mean competition ratio” value came out at 0.0396.
For NLRX1 C735 (UniProt Q86UT6), the “log2 mean competition ratio” value is -0.0581.
For NIBAN1 C516 (UniProt Q9BZQ8), the “log2 mean competition ratio” value was determined as 0.352.
With NOS1AP C168 (UniProt O75052), the “log2 mean competition ratio” value turned out to be 0.158.
In the case of NIFK C269 (UniProt Q9BYG3), the “log2 mean competition ratio” value is -0.0807.

The same experiment, now with this note: 200 µM; treatment time: 4 h; cell line lysate: HEK293T.
As to NDUFV1 C125, the “log2 mean competition ratio” value came to 0.0577.
As for NCAPH C309 (UniProt Q15003), the “log2 mean competition ratio” value was determined as 0.0616.
Same read-out and setting: the value for NFXL1 C748 (UniProt Q6ZNB6) was 0.0722; that for NBAS C1634 (UniProt A2RRP1) was -0.181; that for NCAPD3 C631 (UniProt P42695) was -0.0957.
The same measure, in the same setting: the value for NFRKB C29 (UniProt Q6P4R8) was 0.293.
Turning to NCAPD3 C361 (UniProt P42695), the “log2 mean competition ratio” value was -0.41.
Still for that read-out and setting: the value for NEDD1 C314 (UniProt Q8NHV4) was -0.217; that for NCOA7 C487 (UniProt Q8NI08) was -0.0493; that for NOL8 C259 (UniProt Q76FK4) was 0.135.
On the same count and under the same terms, the value for NEMP1 C434 (UniProt O14524) was -0.224.
For NCOA3 C197 (UniProt Q9Y6Q9), the “log2 mean competition ratio” value was -0.0571.
On to NEDD1 C66 (UniProt Q8NHV4), for which the “log2 mean competition ratio” value was 0.313.
Consider NKD2 C229, for which the “log2 mean competition ratio” value amounted to 0.555.
For the target NEK7 C253 (UniProt Q8TDX7), the “log2 mean competition ratio” value stood at 0.0248.
As to NCKIPSD C376 (UniProt Q9NZQ3), the “log2 mean competition ratio” value turned out to be 0.074.
NCAPG C966 (UniProt Q9BPX3): the “log2 mean competition ratio” value is 0.0775.
On to NCAPG2 C443 (UniProt Q86XI2), for which the “log2 mean competition ratio” value was found to be 0.0606.
As for NIBAN2 C405 (UniProt Q96TA1), the “log2 mean competition ratio” value worked out at 0.0582.
In the case of NCAPH2 C230 (UniProt Q6IBW4), the “log2 mean competition ratio” value amounted to 0.117.
Turning to NCAPH C114 (UniProt Q15003), the “log2 mean competition ratio” value amounted to 0.00549.
Same read-out and setting: the value for NHSL1 C1554 (UniProt Q5SYE7) was -0.135; that for NDUFB11 C141 (UniProt Q9NX14) was -0.0858; that for NCAPD2 C1249 (UniProt Q15021) was 0.4.
Consider NDOR1 C507 (UniProt Q9UHB4), for which the “log2 mean competition ratio” value is -0.478.
On the same count and under the same terms, then NDUFAF7 C148 (UniProt Q7L592), with -0.359; and NLN C153 (UniProt Q9BYT8), with 0.14.
For the target NIT1 C203 (UniProt Q86X76), the “log2 mean competition ratio” value was determined as 0.0667.
In the case of NIN C297 (UniProt Q8N4C6), the “log2 mean competition ratio” value is 0.0529.
Take NFAT5 C566 (UniProt O94916): the “log2 mean competition ratio” value stood at 0.163.
In the case of NME3 C158, the “log2 mean competition ratio” value is -0.169.
Turning to NEU1 C299 (UniProt Q99519), the “log2 mean competition ratio” value was 0.162.
Still for that read-out and setting: the value for NCAPD3 C1389 (UniProt P42695) was -0.119; that for NCOR2 C866 was -0.146; that for NLRX1 C735 (UniProt Q86UT6) was 0.124.
Same read-out and setting: then NIBAN1 C516 (UniProt Q9BZQ8), with -0.24; and NOS1AP C168 (UniProt O75052), with -0.262.
Same read-out and setting: the value for NIFK C269 (UniProt Q9BYG3) was -0.0457.

Compound in a further experiment: ClCC(=O)N[C@H]1CCCc2ccccc12
Described as above. To be noted: 50 µM; treatment time: 4 h; cell line lysate: HEK293T. The method, then:
as §1
For the target NDUFV1 C125, the “log2 mean competition ratio” value was found to be 0.215.
Turning to NCAPH C309 (UniProt Q15003), the “log2 mean competition ratio” value was -0.216.
For NFXL1 C748 (UniProt Q6ZNB6), the “log2 mean competition ratio” value was -0.0692.
On to NBAS C1634 (UniProt A2RRP1), for which the “log2 mean competition ratio” value is -0.298.
Consider NCAPD3 C631 (UniProt P42695), for which the “log2 mean competition ratio” value worked out at 0.51.
In the case of NFRKB C29 (UniProt Q6P4R8), the “log2 mean competition ratio” value was -0.139.
Take NCAPD3 C361 (UniProt P42695): the “log2 mean competition ratio” value is -0.405.
Take NEDD1 C314 (UniProt Q8NHV4): the “log2 mean competition ratio” value worked out at 0.282.
With NCOA7 C487 (UniProt Q8NI08), the “log2 mean competition ratio” value is 0.195.
Still for that read-out and setting: then NOL8 C259 (UniProt Q76FK4), with -0.123; and NEMP1 C434 (UniProt O14524), with 0.621; and NCOA3 C197 (UniProt Q9Y6Q9), with 0.55.
On the same count and under the same terms, the value for NEDD1 C66 (UniProt Q8NHV4) was 0.534.
Same read-out and setting: the value for NKD2 C229 was -0.293; that for NEK7 C253 (UniProt Q8TDX7) was 0.377.
With NCKIPSD C376 (UniProt Q9NZQ3), the “log2 mean competition ratio” value was -0.0716.
Same read-out and setting: the value for NCAPG C966 (UniProt Q9BPX3) was -0.065; that for NCAPG2 C443 (UniProt Q86XI2) was -0.0865.
Consider NIBAN2 C405 (UniProt Q96TA1), for which the “log2 mean competition ratio” value was found to be 0.139.
Turning to NCAPH2 C230 (UniProt Q6IBW4), the “log2 mean competition ratio” value is -0.0933.
Take NCAPH C114 (UniProt Q15003): the “log2 mean competition ratio” value is -0.079.
On the same count and under the same terms, then NHSL1 C1554 (UniProt Q5SYE7), with 0.376; and NDUFB11 C141 (UniProt Q9NX14), with 0.213.
For the target NCAPD2 C1249 (UniProt Q15021), the “log2 mean competition ratio” value was found to be 0.152.
On to NDOR1 C507 (UniProt Q9UHB4), for which the “log2 mean competition ratio” value was -0.097.
On the same count and under the same terms, then NDUFAF7 C148 (UniProt Q7L592), with -0.883; and NLN C153 (UniProt Q9BYT8), with -0.428.
Consider NIT1 C203 (UniProt Q86X76), for which the “log2 mean competition ratio” value came out at 0.381.
As to NIN C297 (UniProt Q8N4C6), the “log2 mean competition ratio” value is -0.822.
On to NFAT5 C566 (UniProt O94916), for which the “log2 mean competition ratio” value was determined as 0.086.
Consider NME3 C158, for which the “log2 mean competition ratio” value was found to be 0.287.
In the case of NEU1 C299 (UniProt Q99519), the “log2 mean competition ratio” value was -0.439.
In the case of NCAPD3 C1389 (UniProt P42695), the “log2 mean competition ratio” value was 0.48.
As to NCOR2 C866, the “log2 mean competition ratio” value was -0.143.
On to NLRX1 C735 (UniProt Q86UT6), for which the “log2 mean competition ratio” value was -0.157.
The same measure, in the same setting: then NIBAN1 C516 (UniProt Q9BZQ8), with 0.162; and NOS1AP C168 (UniProt O75052), with -0.514; and NIFK C269 (UniProt Q9BYG3), with 0.059.
